Reference: patent US20160046678A1 (ZYNGENIA, published 2016)
These are yes or no findings as the source states them, for the method shown. Some binding calls cover weakened binding; strength is not graded here.

T1: Angiopoietin-2 (Ang2) (human, UniProt O15123 19-496, biotin label in Examples 22-24)
T1 construct: also called rhAng2; recombinant Ang2
T1 sequence (looked up): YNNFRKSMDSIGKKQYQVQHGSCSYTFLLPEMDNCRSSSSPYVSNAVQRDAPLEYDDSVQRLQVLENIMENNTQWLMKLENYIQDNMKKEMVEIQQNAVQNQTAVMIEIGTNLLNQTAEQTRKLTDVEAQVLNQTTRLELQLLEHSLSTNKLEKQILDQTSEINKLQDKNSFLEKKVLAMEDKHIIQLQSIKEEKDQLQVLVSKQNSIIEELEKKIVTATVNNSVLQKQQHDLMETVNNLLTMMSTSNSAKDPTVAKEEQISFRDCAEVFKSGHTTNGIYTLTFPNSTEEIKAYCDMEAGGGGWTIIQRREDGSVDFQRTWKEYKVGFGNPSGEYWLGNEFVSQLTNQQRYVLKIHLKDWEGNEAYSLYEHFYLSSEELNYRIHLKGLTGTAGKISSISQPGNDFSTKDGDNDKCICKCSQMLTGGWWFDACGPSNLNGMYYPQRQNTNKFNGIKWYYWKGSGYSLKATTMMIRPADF


target: T1, Angiopoietin-2 (Ang2); assay: Example 48, method not detailed

binding, binds:
IPLDCYFYPNPPSCYHSY [ANG751]
FPPWFQDCFFYPNPPVCY [ANG773]
AASQTSDCYFYPNPPSCY [ANG752]
THLDCYFYPNPPHCYSST [ANG755]
RMFDCYFYPNPPLCYNHI [ANG777]
LPHPHLDCYFYPNPAFCY [ANG807]
PFSSFFDCYFYPNPHHCY [ANG813]
IVVYSADCFFYPNPRHCY [ANG776]
STHDCFLYPNPPHCYWPQ [ANG802]
RISSMVECYFYPNPPHCY [ANG798]
ECYFYPNPAHCYTGTNKE [ANG806]
RPSMHMECYFYPNPPYCY [ANG793]
HSLLHWDCYFYPNPSHCY [ANG766]
QGTHMLDCYFYPNPPNCY [ANG825]
NTNDPFDCFFYPNPPHCY [ANG756]
DYLSMLECYFYPNPSHCY [ANG782]
GFLTSLDCYFYPNPPHCY [ANG795]
FMTSGVECYFYPNPPHCY [ANG783]
VEEACYFYPNPPHCYEAV [ANG829]
FNSTLFDCFFYPNPMHCY [ANG817]
PLLPFYDCYFYPNPSHCY [ANG790]
YGTDCYFFPNPRNCYKIN [ANG811]
VDIDCYFYPNPPNCYNKA [ANG804]
SYVDTTDCYFYPNPQHCY [ANG808]
TVYDCYFYPNPGHCYLQL [ANG763]
EVPDCYYYPNPPHCYEAN [ANG797]
PFSVITECYFYPNPPHCY [ANG799]
YVGHMLDCYFYPNPPHCY [ANG814]
FTQPMVDCYFYPNPPHCY [ANG816]
TWGVCYFYPNPPHCYEQL [ANG827]
DPVDCYFYPNPAHCYSTV [ANG775]
GLVDCYFYPNPPHCYWPH [ANG769]
YRLDLSECYYYPNPLHCY [ANG749]
PWSPCYWYPNPRFCYEAS [ANG786]
RSLPIYECYFYPNPPHCY [ANG820]
VSLYYSACYFYPNPPWCN [ANG822]
MVFHELDCYFYPNPPHCY [ANG765]
YSTDCYFYPNPPHCYGPH [ANG812]
SVLDCYFYPNPAHCYENV [ANG823]
LLVDCYYYPNPTHCSKNS [ANG787]
QQADHIDCYFYPNPPYCY [ANG801]
VSTDCYFYPNPPHCYSVL [ANG824]
DCYFYPNPPHCYHDNEIE [ANG788]
HALECYFYPNPLHCYTQP [ANG774]
LVVDCYFYPNPPHCYDYS [ANG791]
SMYDCLYFPNPPHCYIQN [ANG815]
PSADLLDCYFFPNPPHCS [ANG800]
LFENSLGCYFFPNPPHCY [ANG771]
QLRECYWFPNPSHCYIES [ANG767]
WINDCYFYPNPSHCFVGD [ANG810]
PPLDCYFYPNPPNCYLGQ [ANG809]
VASWKYDCYFYPNPLHCY [ANG803]
HQMTQIECYFFPNPQHCY [ANG785]
FSHPFTDCFFYPNPQHCY [ANG762]
LLDRFLDCYFYPNPSHCS [ANG805]
LFLNPYDCYFYPNPPQCY [ANG784]
TPSDCFFYPNPPHCYLMN [ANG826]
LWYTTVNCYFCPNPLHCY [ANG781]
IHKLDLDCYYYPNPPHCY [ANG757]
